The test concerns MX-1 breast xenograft, intrarenal, nude mice, tumor weight. In words: NCI In Vivo Anticancer Drug Screen. Data for tumor model Human Mammary Carcinoma MX-1 Xenograft (intrarenal inoculation) in NU/NU BALB/C (nude) mice. To be noted: T/C endpoint: mean tumor weight change, schedule: Q04DX003 (sc), higher T/C = larger tumour; for T/C: evaluated on day 11. The procedure:
The antitumor activity of compounds was measured in mice bearing transplantable tumors. Survival or tumor size were measured and the results are expressed as the measurement made in the treated group (T) divided by the measurement made in the vehicle treated control group (C). The tumor model used in this assay is Human Mammary Carcinoma MX-1 Xenograft (intrarenal inoculation) in NU/NU BALB/C (nude) mice
A general note: Xenograft models place foreign cells or tissue in a host animal.

The list does not hold the whole screen: it covers a few groups of compounds. Not every dose and run of a compound is shown. T/C is the treated group as % of the vehicle group. Schedules are NCI's codes, taken here to give the interval after Q, in days (D) or hours (H), and the number of doses after X. Some T/C values are negative: the treated tumours shrank. Some T/C values carry the count of animals alive at the toxicity check; where neither a count nor a note follows, no animal had died by that day. Some doses have a count of surviving animals in place of a T/C: the source files T/C as zero there, which appears to mark a toxic dose or a test without result, not a measured value. Survivors were counted at the toxicity check; its day is shown where the source gives one, and later deaths do not show.

Consider `C[As](C)SC1OC(CO)C(O)C(O)C1O` (stereo not given), for which the T/C reads like this: (dose: 24.0 mg/kg/injection, vehicle: saline) 107 % of control; (dose: 48.0 mg/kg/injection, vehicle: saline) 113 % of control; (dose: 96.0 mg/kg/injection, vehicle: saline) 92 % of control; (dose: 192.0 mg/kg/injection, vehicle: saline) 70 % of control.
With `CC1(C)CN1P(=O)(Nc1ncccn1)N1CC1(C)C` (stereo not given), the T/C is 61 % of control (dose: 200.0 mg/kg/injection, vehicle: saline); 17 % of control (dose: 400.0 mg/kg/injection, vehicle: saline); -59 % of control (dose: 800.0 mg/kg/injection, vehicle: saline). Also, the survivor count (dose: 1600.0 mg/kg/injection, vehicle: saline) was 0 of 6 on day 11.
Take `ICCN(CCI)c1cccc2ccccc12`: the T/C (dose: 37.5 mg/kg/injection, vehicle: Klucel (hydroxypropylcellulose) (HPC)) was 16 % of control; the T/C (dose: 75.0 mg/kg/injection, vehicle: Klucel (hydroxypropylcellulose) (HPC)) was 4 % of control; the T/C (dose: 150.0 mg/kg/injection, vehicle: Klucel (hydroxypropylcellulose) (HPC)) was 1 % of control.
Regarding `ClC1CSC1`, the T/C (dose: 300.0 mg/kg/injection, vehicle: saline with Tween-80) is 111 % of control; the T/C (dose: 600.0 mg/kg/injection, vehicle: saline with Tween-80) is 68 % of control; the T/C (dose: 1200.0 mg/kg/injection, vehicle: saline with Tween-80) was 127 % of control; the T/C (dose: 2400.0 mg/kg/injection, vehicle: saline with Tween-80) was 135 % of control [5 of 6 alive on day 11].

The record behind these values is PubChem BioAssay AID298 (DTP/NCI, 2004).
